Results taken from US20080044348A1 (priority 2006, published 2008).
At least one structure is not confirmed: it was looked up by name or label, or the drawing left a doubt.

Tested on: HIF1α signaling
Assay type: cell-based

Compound | effect on CoCl2-induced HIF1α signaling
CCCCCCCCCCCCCCCCCCOCC(COP(=O)([O-])OCC[N+](C)(C)C)OC (stereo not drawn) [Edelfosine] | suppressed CoCl2-induced HIF1α signaling
CO[C@H]1C[C@@H]2CC[C@@H](C)[C@@](O)(O2)C(=O)C(=O)N2CCCC[C@H]2C(=O)O[C@H]([C@H](C)C[C@@H]2CC[C@@H](O)[C@H](OC)C2)CC(=O)[C@H](C)/C=C(\C)[C@@H](O)[C@@H](OC)C(=O)[C@H](C)C[C@H](C)/C=C/C=C/C=C/1C [Rapamycin] | no significant effect on HIF1α signaling
O=c1cc(N2CCOCC2)oc2c(-c3ccccc3)cccc12 [LY 294002] | suppressed CoCl2-induced HIF1α signaling
